The supplement of paper PMC12823440, “Inhibitors supercharge kinase turnover through native proteolytic circuits” (Nature, 2025)
Counter-ions that a name gives are not always drawn. The list shows a part of the results. Hit calls seldom repeat between salt and free forms of one compound.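 In K562 cells expressing nanoluciferase-fused kinases, luminescence was recorded at 4 h intervals between 2 and 18 h, normalized as percent of control with DMSO at 100% and a positive control at 0%. A significant (2 sigma) signal drop marks a time point as decreased. The authors' rule for a hit is not shown and takes in more than the number of time points.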

Amino acid sequences for entries named in this document (tags omitted). A change or cut given only in a name is not applied to a line headed by its entry.
UniProt P28482, whole entry: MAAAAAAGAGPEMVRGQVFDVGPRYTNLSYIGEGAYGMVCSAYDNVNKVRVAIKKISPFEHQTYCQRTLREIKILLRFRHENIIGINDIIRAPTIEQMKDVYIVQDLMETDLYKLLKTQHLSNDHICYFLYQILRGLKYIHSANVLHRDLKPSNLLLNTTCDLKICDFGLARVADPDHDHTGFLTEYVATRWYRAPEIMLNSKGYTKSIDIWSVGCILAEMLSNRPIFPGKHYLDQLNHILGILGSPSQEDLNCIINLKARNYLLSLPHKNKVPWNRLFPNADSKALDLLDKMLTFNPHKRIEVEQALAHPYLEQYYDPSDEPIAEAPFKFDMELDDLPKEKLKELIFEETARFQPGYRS
UniProt P49137, whole entry, looked up: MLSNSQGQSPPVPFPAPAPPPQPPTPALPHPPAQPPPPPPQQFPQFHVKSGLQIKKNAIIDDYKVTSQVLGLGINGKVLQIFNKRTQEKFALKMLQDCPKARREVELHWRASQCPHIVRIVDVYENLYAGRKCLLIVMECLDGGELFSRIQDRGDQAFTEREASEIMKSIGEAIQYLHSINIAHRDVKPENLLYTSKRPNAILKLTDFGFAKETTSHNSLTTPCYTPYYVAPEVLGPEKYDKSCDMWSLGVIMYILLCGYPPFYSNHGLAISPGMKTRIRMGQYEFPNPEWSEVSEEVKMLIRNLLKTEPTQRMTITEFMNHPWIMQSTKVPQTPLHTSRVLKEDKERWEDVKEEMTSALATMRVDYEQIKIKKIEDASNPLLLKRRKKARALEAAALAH
UniProt Q9BUB5: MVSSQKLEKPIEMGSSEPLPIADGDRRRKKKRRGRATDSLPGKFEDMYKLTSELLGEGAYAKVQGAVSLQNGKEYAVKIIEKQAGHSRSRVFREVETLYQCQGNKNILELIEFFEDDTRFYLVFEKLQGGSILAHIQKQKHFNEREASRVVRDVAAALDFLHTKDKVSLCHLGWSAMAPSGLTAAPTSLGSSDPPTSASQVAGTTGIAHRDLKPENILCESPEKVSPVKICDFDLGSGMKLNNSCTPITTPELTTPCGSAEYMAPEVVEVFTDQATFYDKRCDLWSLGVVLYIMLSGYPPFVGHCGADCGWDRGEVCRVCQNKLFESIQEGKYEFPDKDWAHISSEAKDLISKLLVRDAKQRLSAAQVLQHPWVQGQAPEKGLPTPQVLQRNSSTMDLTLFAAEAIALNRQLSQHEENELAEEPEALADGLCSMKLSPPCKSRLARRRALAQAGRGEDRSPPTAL
UniProt O96013: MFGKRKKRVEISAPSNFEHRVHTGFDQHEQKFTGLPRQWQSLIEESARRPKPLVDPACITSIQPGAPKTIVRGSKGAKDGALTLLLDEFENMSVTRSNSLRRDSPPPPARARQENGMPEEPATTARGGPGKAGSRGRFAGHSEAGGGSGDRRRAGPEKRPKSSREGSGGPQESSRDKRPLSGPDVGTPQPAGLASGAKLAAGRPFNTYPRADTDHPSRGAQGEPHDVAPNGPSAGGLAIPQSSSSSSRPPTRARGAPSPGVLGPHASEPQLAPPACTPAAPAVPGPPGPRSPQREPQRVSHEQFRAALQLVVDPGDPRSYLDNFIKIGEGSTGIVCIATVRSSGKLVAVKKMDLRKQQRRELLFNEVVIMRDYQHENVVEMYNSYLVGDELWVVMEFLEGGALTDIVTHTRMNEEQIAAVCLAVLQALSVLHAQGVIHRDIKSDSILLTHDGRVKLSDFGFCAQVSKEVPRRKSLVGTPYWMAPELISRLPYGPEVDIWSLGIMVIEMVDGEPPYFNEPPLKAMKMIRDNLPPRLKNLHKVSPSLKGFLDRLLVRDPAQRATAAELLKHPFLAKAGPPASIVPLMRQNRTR
UniProt Q96KB5: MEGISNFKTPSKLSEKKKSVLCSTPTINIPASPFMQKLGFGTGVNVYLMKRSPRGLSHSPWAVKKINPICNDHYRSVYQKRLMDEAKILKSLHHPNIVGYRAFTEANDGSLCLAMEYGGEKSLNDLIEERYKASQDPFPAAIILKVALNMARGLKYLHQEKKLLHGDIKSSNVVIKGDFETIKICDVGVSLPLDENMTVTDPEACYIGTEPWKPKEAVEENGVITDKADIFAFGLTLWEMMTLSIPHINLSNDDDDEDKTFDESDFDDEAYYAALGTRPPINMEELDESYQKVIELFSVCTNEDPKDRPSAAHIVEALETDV
UniProt P09619, whole entry: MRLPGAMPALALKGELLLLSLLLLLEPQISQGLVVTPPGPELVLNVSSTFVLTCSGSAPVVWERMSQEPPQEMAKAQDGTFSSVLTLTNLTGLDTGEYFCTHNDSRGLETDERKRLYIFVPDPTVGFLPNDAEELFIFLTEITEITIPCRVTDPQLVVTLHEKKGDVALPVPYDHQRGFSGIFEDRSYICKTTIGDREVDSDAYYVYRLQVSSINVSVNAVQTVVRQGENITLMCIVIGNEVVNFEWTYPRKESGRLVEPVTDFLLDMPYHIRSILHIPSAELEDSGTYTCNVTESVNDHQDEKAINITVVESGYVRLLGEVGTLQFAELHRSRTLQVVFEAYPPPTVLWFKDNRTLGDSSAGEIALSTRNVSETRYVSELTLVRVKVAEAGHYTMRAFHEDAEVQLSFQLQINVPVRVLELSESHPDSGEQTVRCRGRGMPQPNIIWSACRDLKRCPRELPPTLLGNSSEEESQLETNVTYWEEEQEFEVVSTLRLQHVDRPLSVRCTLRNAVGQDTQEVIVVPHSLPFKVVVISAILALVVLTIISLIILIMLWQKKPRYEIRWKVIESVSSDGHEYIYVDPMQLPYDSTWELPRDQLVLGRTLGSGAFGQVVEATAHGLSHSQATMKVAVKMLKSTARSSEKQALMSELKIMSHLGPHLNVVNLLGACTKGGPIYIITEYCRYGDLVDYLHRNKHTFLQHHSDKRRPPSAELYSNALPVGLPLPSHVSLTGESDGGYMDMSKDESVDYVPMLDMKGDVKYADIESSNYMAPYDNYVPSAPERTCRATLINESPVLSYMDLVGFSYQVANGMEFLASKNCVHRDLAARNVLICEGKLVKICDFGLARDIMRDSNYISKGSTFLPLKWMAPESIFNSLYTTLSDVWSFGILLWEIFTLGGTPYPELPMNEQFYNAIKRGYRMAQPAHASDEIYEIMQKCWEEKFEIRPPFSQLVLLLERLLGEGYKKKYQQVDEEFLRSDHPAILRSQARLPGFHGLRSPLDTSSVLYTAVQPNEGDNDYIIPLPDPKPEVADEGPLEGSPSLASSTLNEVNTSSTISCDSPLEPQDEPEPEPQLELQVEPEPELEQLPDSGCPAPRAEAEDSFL
UniProt O15530: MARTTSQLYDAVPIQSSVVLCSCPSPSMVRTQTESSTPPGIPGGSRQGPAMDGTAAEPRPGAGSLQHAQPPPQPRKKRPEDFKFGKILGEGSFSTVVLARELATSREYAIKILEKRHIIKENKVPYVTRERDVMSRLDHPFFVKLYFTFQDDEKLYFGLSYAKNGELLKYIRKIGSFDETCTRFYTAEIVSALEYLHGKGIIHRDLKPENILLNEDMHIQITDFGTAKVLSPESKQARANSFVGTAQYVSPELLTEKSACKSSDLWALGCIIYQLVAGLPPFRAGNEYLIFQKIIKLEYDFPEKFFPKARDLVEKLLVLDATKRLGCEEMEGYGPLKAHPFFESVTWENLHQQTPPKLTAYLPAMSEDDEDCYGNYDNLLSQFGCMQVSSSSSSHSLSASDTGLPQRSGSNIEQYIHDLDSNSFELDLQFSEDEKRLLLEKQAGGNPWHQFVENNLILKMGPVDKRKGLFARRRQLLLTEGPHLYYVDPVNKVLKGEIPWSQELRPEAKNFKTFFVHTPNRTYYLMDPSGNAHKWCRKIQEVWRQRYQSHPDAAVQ
UniProt Q9UBF8: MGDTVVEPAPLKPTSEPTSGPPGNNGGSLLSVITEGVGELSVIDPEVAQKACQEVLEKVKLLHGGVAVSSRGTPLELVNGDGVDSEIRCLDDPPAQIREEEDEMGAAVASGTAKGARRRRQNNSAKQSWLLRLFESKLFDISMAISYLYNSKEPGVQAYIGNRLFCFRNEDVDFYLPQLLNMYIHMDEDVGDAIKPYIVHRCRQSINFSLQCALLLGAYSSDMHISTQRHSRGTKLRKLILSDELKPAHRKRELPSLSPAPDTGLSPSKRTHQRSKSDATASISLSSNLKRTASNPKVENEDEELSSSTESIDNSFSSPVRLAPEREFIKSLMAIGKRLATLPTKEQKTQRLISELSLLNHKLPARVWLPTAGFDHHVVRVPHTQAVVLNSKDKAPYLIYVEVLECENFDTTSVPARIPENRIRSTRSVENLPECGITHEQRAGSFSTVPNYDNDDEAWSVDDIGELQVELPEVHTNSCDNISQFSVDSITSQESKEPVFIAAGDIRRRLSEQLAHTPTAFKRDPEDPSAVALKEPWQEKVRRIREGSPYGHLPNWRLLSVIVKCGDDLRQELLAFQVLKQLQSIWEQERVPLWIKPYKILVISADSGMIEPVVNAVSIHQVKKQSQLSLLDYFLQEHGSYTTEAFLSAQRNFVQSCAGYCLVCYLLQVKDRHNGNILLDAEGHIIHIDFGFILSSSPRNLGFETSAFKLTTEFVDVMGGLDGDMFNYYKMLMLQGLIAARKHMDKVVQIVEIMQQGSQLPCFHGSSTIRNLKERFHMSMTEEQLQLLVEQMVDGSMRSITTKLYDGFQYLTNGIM
UniProt Q13131: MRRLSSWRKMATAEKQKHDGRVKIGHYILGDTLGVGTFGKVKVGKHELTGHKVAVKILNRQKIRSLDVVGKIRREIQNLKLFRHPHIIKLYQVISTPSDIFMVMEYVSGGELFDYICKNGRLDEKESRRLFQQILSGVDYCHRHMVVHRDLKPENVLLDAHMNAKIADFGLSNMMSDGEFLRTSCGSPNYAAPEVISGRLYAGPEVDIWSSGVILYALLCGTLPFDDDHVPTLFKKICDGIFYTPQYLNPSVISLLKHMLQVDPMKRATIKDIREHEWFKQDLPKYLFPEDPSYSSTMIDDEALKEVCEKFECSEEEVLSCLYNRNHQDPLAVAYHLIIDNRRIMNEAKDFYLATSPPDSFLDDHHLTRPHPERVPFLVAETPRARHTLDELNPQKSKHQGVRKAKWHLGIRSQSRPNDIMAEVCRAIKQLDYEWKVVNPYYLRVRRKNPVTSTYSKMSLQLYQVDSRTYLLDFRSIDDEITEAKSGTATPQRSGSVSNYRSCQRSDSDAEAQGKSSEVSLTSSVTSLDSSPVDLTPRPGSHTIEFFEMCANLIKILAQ
UniProt Q05397, whole entry, looked up: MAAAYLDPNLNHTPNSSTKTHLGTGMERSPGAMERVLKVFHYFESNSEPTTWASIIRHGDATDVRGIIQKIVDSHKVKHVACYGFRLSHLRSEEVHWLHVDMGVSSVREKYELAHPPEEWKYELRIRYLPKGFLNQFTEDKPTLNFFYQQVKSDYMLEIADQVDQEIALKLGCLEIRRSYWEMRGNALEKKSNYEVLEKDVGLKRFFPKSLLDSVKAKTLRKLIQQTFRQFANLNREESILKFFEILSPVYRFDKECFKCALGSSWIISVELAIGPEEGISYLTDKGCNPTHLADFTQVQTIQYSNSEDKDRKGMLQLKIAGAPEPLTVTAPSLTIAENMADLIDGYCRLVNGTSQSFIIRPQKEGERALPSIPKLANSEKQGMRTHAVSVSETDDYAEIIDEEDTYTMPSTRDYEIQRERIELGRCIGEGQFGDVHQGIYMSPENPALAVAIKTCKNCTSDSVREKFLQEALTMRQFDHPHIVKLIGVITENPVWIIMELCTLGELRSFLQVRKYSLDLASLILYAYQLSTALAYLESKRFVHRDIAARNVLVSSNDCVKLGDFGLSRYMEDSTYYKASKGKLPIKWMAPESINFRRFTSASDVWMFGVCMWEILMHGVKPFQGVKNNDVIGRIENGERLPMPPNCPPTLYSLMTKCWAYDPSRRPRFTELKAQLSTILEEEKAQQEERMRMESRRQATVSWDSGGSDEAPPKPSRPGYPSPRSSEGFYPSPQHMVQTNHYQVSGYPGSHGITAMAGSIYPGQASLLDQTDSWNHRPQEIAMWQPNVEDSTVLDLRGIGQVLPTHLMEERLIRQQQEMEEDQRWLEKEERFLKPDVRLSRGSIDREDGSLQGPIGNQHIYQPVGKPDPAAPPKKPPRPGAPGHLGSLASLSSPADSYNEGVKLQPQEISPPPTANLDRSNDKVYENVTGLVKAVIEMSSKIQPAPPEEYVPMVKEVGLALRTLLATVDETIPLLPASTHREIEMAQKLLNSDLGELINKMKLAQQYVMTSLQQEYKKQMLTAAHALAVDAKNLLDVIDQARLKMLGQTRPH

Assays:
Assay in all cases: kinase-Nluc reporter destabilization hit call (1 = scored as downregulated) (binary); higher = compound decreases kinase abundance
Settings in all cases: K562; 2-18 h
MAPK1 = MAPK1 (UniProt P28482)
MAPK4 = MAPK4 (UniProt P31152)
MAPKAPK2 = MAPKAPK2 (UniProt P49137)
MKNK1 = MKNK1 (UniProt Q9BUB5)
NTRK2 = NTRK2 (UniProt Q16620)
NTRK3 = NTRK3 (UniProt Q16288)
PAK4 = PAK4 (UniProt O96013)
PBK = PBK (UniProt Q96KB5)
PDGFRB = PDGFRB (UniProt P09619)
PDK1 = PDK1 (UniProt Q15118)
PDPK1 = PDPK1 (UniProt O15530)
PIK4CA = PIK4CA (UniProt P42356)
PIK4CB = PIK4CB (UniProt Q9UBF8)
PLK1 = PLK1 (UniProt P53350)
PRKAA1 = PRKAA1 (UniProt Q13131)
PRKCA = PRKCA (UniProt P17252)
PTK2 = PTK2 (UniProt Q05397)
PTK2B = PTK2B (UniProt Q14289)
RAF1 = RAF1 (UniProt P04049)
[1] = molecular target: RAF1_S257L (clone: RAF1_mut) (UniProt P04049)

Measured: kinase-Nluc reporter destabilization hit call

Cc1c(Br)c(Br)c2c3c1nc(N1CCNCC1)n3CCC2 [SEL120-34A (monohydrochloride)] (2.5 µM)
inactive: MAPK1 = 0 | MAPK4 = 0 | MAPKAPK2 = 0 | MKNK1 = 0 | NTRK2 = 0 | NTRK3 = 0 | PAK4 = 0 | PBK 0 | PDGFRB 0 | PDK1 = 0 | PDPK1 = 0 | PIK4CA 0 | PIK4CB 0 | PLK1 = 0 | PRKAA1 = 0 | PRKCA 0 | PTK2 = 0 | PTK2B 0 | RAF1 = 0 | [1] 0

CNC(=O)Nc1cc(Oc2cncc(C)c2)c(-c2ccc(OCC(C)(C)O)nc2)cn1 (2.5 µM)
inactive: MAPK1 = 0 | MAPK4 = 0 | MAPKAPK2 = 0 | MKNK1 = 0 | NTRK2 = 0 | NTRK3 = 0 | PAK4 = 0 | PBK 0 | PDGFRB 0 | PDK1 = 0 | PDPK1 = 0 | PIK4CA 0 | PIK4CB 0 | PLK1 = 0 | PRKAA1 = 0 | PRKCA 0 | PTK2 = 0 | PTK2B 0 | RAF1 = 0 | [1] 0

Cn1cc(-c2ccc3nnc(Sc4ccc5nn(C)cc5c4)n3n2)cn1 [c-Met inhibitor 1] (10 µM)
inactive: MAPK1 = 0 | MAPK4 = 0 | MAPKAPK2 = 0 | MKNK1 = 0 | NTRK2 = 0 | NTRK3 = 0 | PAK4 = 0 | PBK 0 | PDGFRB 0 | PDK1 = 0 | PDPK1 = 0 | PIK4CA 0 | PIK4CB 0 | PLK1 = 0 | PRKAA1 = 0 | PRKCA 0 | PTK2 = 0 | PTK2B 0 | RAF1 = 0 | [1] 0

CCc1ccc(NC(=O)Nc2ccccc2)cc1 (10 µM)
inactive: MAPK1 = 0 | MAPK4 = 0 | MAPKAPK2 = 0 | MKNK1 = 0 | NTRK2 = 0 | NTRK3 = 0 | PAK4 = 0 | PBK 0 | PDGFRB 0 | PDK1 = 0 | PDPK1 = 0 | PIK4CA 0 | PIK4CB 0 | PLK1 = 0 | PRKAA1 = 0 | PRKCA 0 | PTK2 = 0 | PTK2B 0 | RAF1 = 0 | [1] 0

O=C(Nc1ncc(SCCN2CCCC2)s1)[C@]1(c2ccc(S(=O)(=O)C3CC3)cc2)C[C@H]1C1CCCCC1 [Globalagliatin] (2.5 µM)
inactive: MAPK1 = 0 | MAPK4 = 0 | MAPKAPK2 = 0 | MKNK1 = 0 | NTRK2 = 0 | NTRK3 = 0 | PAK4 = 0 | PBK 0 | PDGFRB 0 | PDK1 = 0 | PDPK1 = 0 | PIK4CA 0 | PIK4CB 0 | PLK1 = 0 | PRKAA1 = 0 | PRKCA 0 | PTK2 = 0 | PTK2B 0 | RAF1 = 0 | [1] 0

Two neighbouring compounds already listed:
CCc1ccc(NC(=O)Nc2ccccc2)cc1 (10 µM)
inactive: MAPK1 = 0 | MAPK4 = 0 | MAPKAPK2 = 0 | MKNK1 = 0 | NTRK2 = 0 | NTRK3 = 0 | PAK4 = 0 | PBK 0 | PDGFRB 0 | PDK1 = 0 | PDPK1 = 0 | PIK4CA 0 | PIK4CB 0 | PLK1 = 0 | PRKAA1 = 0 | PRKCA 0 | PTK2 = 0 | PTK2B 0 | RAF1 = 0 | [1] 0

O=C(Nc1ncc(SCCN2CCCC2)s1)[C@]1(c2ccc(S(=O)(=O)C3CC3)cc2)C[C@H]1C1CCCCC1 [Globalagliatin] (2.5 µM)
inactive: MAPK1 = 0 | MAPK4 = 0 | MAPKAPK2 = 0 | MKNK1 = 0 | NTRK2 = 0 | NTRK3 = 0 | PAK4 = 0 | PBK 0 | PDGFRB 0 | PDK1 = 0 | PDPK1 = 0 | PIK4CA 0 | PIK4CB 0 | PLK1 = 0 | PRKAA1 = 0 | PRKCA 0 | PTK2 = 0 | PTK2B 0 | RAF1 = 0 | [1] 0

Additional results

COc1ccc(C(=O)c2cn(C(C)C)c3ncnc(N)c23)cc1NC(=O)Nc1ccc(Cl)cc1Cl (10 µM)
inactive: MAPK1 = 0 | MAPK4 = 0 | MAPKAPK2 = 0 | MKNK1 = 0 | NTRK2 = 0 | NTRK3 = 0 | PAK4 = 0 | PBK 0 | PDGFRB 0 | PDK1 = 0 | PDPK1 = 0 | PIK4CA 0 | PIK4CB 0 | PLK1 = 0 | PRKAA1 = 0 | PRKCA 0 | PTK2 = 0 | PTK2B 0 | RAF1 = 0 | [1] 0

CCc1nc(C(N)=O)c(Nc2ccc(N3CCC(N4CCN(C)CC4)CC3)c(OC)c2)nc1NC1CCC(OC)CC1 (stereo not given) [EML4-ALK kinase inhibitor 1] (2.5 µM)
inactive: MAPK1 = 0 | MAPK4 = 0 | MAPKAPK2 = 0 | MKNK1 = 0 | NTRK2 = 0 | NTRK3 = 0 | PAK4 = 0 | PBK 0 | PDGFRB 0 | PDK1 = 0 | PDPK1 = 0 | PIK4CA 0 | PIK4CB 0 | PLK1 = 0 | PRKAA1 = 0 | PRKCA 0 | PTK2 = 0 | PTK2B 0 | RAF1 = 0 | [1] 0

CCCC[C@H](CO)Nc1nc(NC)ncc1OC [Interferon receptor inducer-1] (10 µM)
inactive: MAPK1 = 0 | MAPK4 = 0 | MAPKAPK2 = 0 | MKNK1 = 0 | NTRK2 = 0 | NTRK3 = 0 | PAK4 = 0 | PBK 0 | PDGFRB 0 | PDK1 = 0 | PDPK1 = 0 | PIK4CA 0 | PIK4CB 0 | PLK1 = 0 | PRKAA1 = 0 | PRKCA 0 | PTK2 = 0 | PTK2B 0 | RAF1 = 0 | [1] 0

Cn1c(=O)c(Oc2ccc(F)cc2F)cc2cnc(NC(CCO)CCO)nc21 [Pamapimod] (10 µM)
inactive: MAPK1 = 0 | MAPK4 = 0 | MAPKAPK2 = 0 | MKNK1 = 0 | NTRK2 = 0 | NTRK3 = 0 | PAK4 = 0 | PBK 0 | PDGFRB 0 | PDK1 = 0 | PDPK1 = 0 | PIK4CA 0 | PIK4CB 0 | PLK1 = 0 | PRKAA1 = 0 | PRKCA 0 | PTK2 = 0 | PTK2B 0 | RAF1 = 0 | [1] 0

C[C@@H](N)COc1ccc(-c2cnc3ccc(N[C@H](C)c4cccc(F)c4)nn23)cc1 [Taletrectinib] (2.5 µM)
inactive: MAPK1 = 0 | MAPK4 = 0 | MAPKAPK2 = 0 | MKNK1 = 0 | NTRK2 = 0 | NTRK3 = 0 | PAK4 = 0 | PBK 0 | PDGFRB 0 | PDK1 = 0 | PDPK1 = 0 | PIK4CA 0 | PIK4CB 0 | PLK1 = 0 | PRKAA1 = 0 | PRKCA 0 | PTK2 = 0 | PTK2B 0 | RAF1 = 0 | [1] 0
